According to patent US20080075726A1 (VACCINEX, published 2008):
No constants are given. Whether binding was seen depends on the method and setting.

What was measured:
[1] = target: NNT-1; test: ELISA, cytokine coated on the plate, mAb at 10, 5, 2.5, 1.25, 0.625, 0.313, 0.156 and 0 ng/ml
[2] = target: IL-11; test: as above
[3] = target: CNFT; test: as above
[4] = target: oncostatin M; test: as above
[5] = target: TNF-α; test: as above
[6] = target: NNT-1; test: ELISA on IL-6 superfamily members (FIG. 5A)
[7] = target: IL-11; test: ELISA on IL-6 superfamily members (FIG. 5A)
[8] = target: CNFT; test: ELISA on IL-6 superfamily members (FIG. 5A)
[9] = target: oncostatin M; test: ELISA on IL-6 superfamily members (FIG. 5A)

binding [1]: no binding (tested: 10 ng/ml) | binding [2]: no binding (tested: 10 ng/ml) | binding [3]: no binding (tested: 10 ng/ml) | binding [4]: no binding (tested: 10 ng/ml) | binding [5]: no binding (tested: 10 ng/ml) | binding [6]: no binding | binding [7]: no binding | binding [8]: no binding | binding [9]: no binding
B1: mAb 88 (chimeric B-E8 control antibody) (antibody, V domains shown)
VH: QVTLKESGPGILKPSQTLSLTCSFSGFSLSTSGMGVGWIRQPSGKGLEWLAHIWWDDDKYYNPSLKSQLTISKDTSRNQVFLKITSVDTADTATYYCARSYDDYLYYALDYWGQGTSVTVSS
VL: DIVMTQSPATLSVTPGDRVSLSCRASQSISDYLHWYQQKSHESPRLLIKSVSQSISGIPSRFSGSGSGSDFTLSINSVEPEDVGVYYCQNGHSFPLTFGAGTKLELK
modifications: Biotinylated in FIG. 16.
notes: Chimeric form of murine B-E8; also called control mAb 88
